Test results as given in patent publication US20050020519A1, “Modulation of insulin-regulated aminopeptidase (irap)/angiotensin iv (at4) receptor activity” (priority 2001, published 2005).
Some results were stated once for a whole list of compounds, not compound by compound. Where no end group is shown, it is not given here.

Test system: Sprague-Dawley rats
Assay: Barnes Circular Maze, normal rats
Format: in vivo, rat
Settings: single icv dose, 100 pM or 1 nM, 5 min before first trial; control 7 days

LVVYPWTQRF
days to achieve learner criteria: 3 to 4 days
